# Reference: PubChem BioAssay AID1487 (National Center for Advancing Translational Sciences (NCATS), 2009)
# Values joined by “and” are separate entries in the source; they are usually repeats but may differ in a detail not shown here. Equal entries are not always repeated. Out of some 200,000 compounds screened, about 25 (0.01%) were called active. The shares of active, inactive and inconclusive entries below differ from those in the screen. Calls follow the shape of the dose curve; as a rule, active = well fitted inhibition curve with a large enough effect in the signal ratio, with a control signal flat (not every such curve was filed as active); inconclusive = small, poorly fitted or top-dose-only effect, or effect the other way, or a change in a side signal; inactive = flat fitted curve, though single readings scatter; the % refers to the signal ratio. Potencies beside an inconclusive call are fits to weak or partial responses and may not hold up.
# Test: qHTS Assay for Modulators of Lamin A Splicing
# Conditions: HeLa LMNA splicing GFP/RFP minigene ratio, 48 h; ratio change, negative = inhibition: at 46.1 µM (top of the series) unless noted
# Outline: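 S3 HeLa stable clones carrying a lamin A-EGFP splicing minigene plus DsRed2 were seeded at 600 cells/well in Opti-MEM with 2% FBS, pin-dosed and incubated 48 h at 37°C. Acumen cytometry (488 nm) gave the GFP/RFP total-intensity ratio.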
# % is scaled to controls: 0 for no effect and ±100 for the full control effect; potency is read from the fitted curve at half-maximal effect.
Structure (SMILES),"ratio change, negative = inhibition",Potency
Cc1ccc(NCC(=O)N/N=C/c2cc(O)ccc2[N+](=O)[O-])cc1,inactive: -5.69% [at 46 µM],–
N#CCSc1nc2ccc(N3CCCCC3)cc2c(=O)n1Cc1ccccc1,–,"inconclusive: 3.98 µM [cytotoxic, partial curve]"
O=C(N1CCCCC1)N1CCN(S(=O)(=O)c2ccc(Cl)cc2)CC1,–,"inconclusive: 3.16 µM [inhibitor, single point]"
Fc1ccc(CSc2ccc3nnc(-c4cccnc4)n3n2)cc1,inconclusive: -37.6% [at 46 µM],–
Cc1cc(C)cc(Nc2ncnc3c2nc2n3CCCC2)c1,inactive: -24.3% [at 46 µM],–
COc1ccc(C(=O)/C=C/C(=O)N(Cc2ccc(F)cc2)C(C(=O)NC2CCCCC2)c2ccncc2)c(O)c1 (configuration not stated),–,"inconclusive: 35.5 µM [fluorescent, partial curve]"
CC(C)CCNC(=O)CN1C(=O)CCn2nc(-c3cn(C)c4ccccc34)cc21,inactive: 9.08% [at 46 µM],–
CCOC(=O)C1(C)/C(=N/Nc2ccccc2OC)C(=O)C(=O)N1c1ccccc1 (configuration not stated),inactive: 2.76% [at 46 µM],–
O=C(O)c1ccc(N2CCOCC2)c(N2C(=O)C3C4C=CC(C4)C3C2=O)c1 (configuration not stated),inconclusive: 4.14% [at 46 µM],–
CC(C)(C)c1ccccc1OCCOCCNCc1ccccc1,inconclusive: -19.2%,–
COCCCNC(=S)Nc1ccc(OC(F)F)cc1C,inconclusive: -6.95% [at 46 µM],–
CC(=O)OC(C(=O)NC1CCCCC1)c1ccc(C#N)cc1 (configuration not stated),inconclusive: 1.74%,–
CC(=O)OCC1=C(C(=O)O)N2C(=O)C(NC(=O)C(C)Cn3nc(C)c(Cl)c3C)C2SC1 (configuration not stated),inconclusive: 14.8% [at 46 µM],–
CCOc1ccc(CNC(=O)c2ccc(Sc3ccc(Cl)cc3)c(NC(C)=O)c2)cc1,–,"inconclusive: 25.1 µM [fluorescent, single point]"
CCOC(=O)c1c(S(=O)(=O)N2CCCC(C(=O)Nc3ccc(OCC)cc3)C2)c(C)n(C)c1C (configuration not stated),inactive: 5.73% [at 46 µM],–
CCCCC1CC(CSC(=N)N)OC1=O (configuration not stated),inconclusive: 23.7%,–
c1ccc2[nH]c(-c3cscn3)nc2c1,inconclusive: 23.3% and inconclusive: -4.73%,–
O=C(Nc1ccc(C(=O)N2CCN(c3ccc(F)cc3)CC2)cc1)c1nsc2ccccc12,inconclusive: 2.64% [at 46 µM],–
COC(=O)c1c(NC(=O)C2Cc3ccccc3C(=O)O2)sc2c1CCCC2 (configuration not stated),inactive: 0.475%,–
Nn1cnnc1SC1CCCCC1NS(=O)(=O)c1ccccc1 (configuration not stated),inactive: -0.187%,–
CCS(=O)(=O)n1nc(-c2cccnc2)nc1NCc1ccc(F)cc1,inconclusive: 17.4% [at 46 µM],–
C#CC[N+](C)(C)CCCCCCCCCC,inconclusive: 14.5%,–
COc1ccc(/C=C/C2=NC(=C\N(C)C)/C(=O)O2)cc1,inactive: 2.87%,–
Cc1ccc([N+](=O)[O-])cc1NC(=O)c1ccc(CSc2ccccc2)cc1,inconclusive: 3.81%,–
CCOc1ccc2c(c1)c1nnc(SCC3CCCO3)nc1n2C (configuration not stated),inconclusive: -3.58%,–
COc1ccc2cc(CN(Cc3ccco3)C(=S)NCC3CCCO3)c(=O)[nH]c2c1 (configuration not stated),inconclusive: -15.6% [at 46 µM],–

Structure (SMILES),"ratio change, negative = inhibition",Potency
CCOC(=O)c1sc(NC(=O)C2CCC2)cc1C,inconclusive: -27.6% [at 46 µM],–
COc1ccccc1NC(=O)CN1CCC(c2nc3ccccc3[nH]2)CC1,inconclusive: 4.68% [at 46 µM],–
C/C(=N\NC(=O)CC1(C)OCCO1)c1cccs1,inactive: -1.5%,–
Cc1ccn2cc(-c3cccc(NC(=O)c4ccccc4)c3)nc2c1,inconclusive: -8.87%,–
O=S(=O)(Nc1ccc(-c2ccc(N3CCCCC3)nn2)cc1)c1ccc(OC(F)(F)F)cc1,inconclusive: -5.15% [at 46 µM],–
Cc1ccc(S(=O)(=O)/N=C2/NC(=O)/C(=C/c3ccc(Br)o3)S2)cc1,–,"inconclusive: 35.5 µM [falling, single point]"
CCC(C)(C)C(=O)O[C@@H]1C[C@H](C)C=C2C=C[C@H](C)[C@@H](CC[C@H]3C[C@@H](O)CC(=O)O3)[C@H]21,–,inconclusive: 0.0004 µM
O=C(/C=C/c1cccc(Cl)c1)N1CCC(Cc2ccccc2)CC1,–,"inconclusive: 25.1 µM [fluorescent, single point]"
CCC(C)NCCOCCOc1ccc(Cl)cc1Br (configuration not stated),inconclusive: -30.8% [at 46 µM],–
FC(F)(F)c1cccc(-n2cc(-c3ccccc3)c3c(N4CCCCC4)ncnc32)c1,inconclusive: -34.5% [at 46 µM],–
O=[N+]([O-])c1ccc2[nH]c(O)c(N=NC(=S)NCC3CCCO3)c2c1 (configuration not stated),inconclusive: 5.27%,–
CCOC(=O)Cc1c(C)nc2c(-c3ccccc3OC)c(C)nn2c1C,inconclusive: 15.4%,–
CC(=O)OCC1=C(C(=O)O)N2C(=O)C(NC(=O)c3ccc(F)cc3)C2SC1 (configuration not stated),inconclusive: 66.5% [at 46 µM],–
Cc1sc2nc(COC(=O)c3ccc(N4CCCC4)c([N+](=O)[O-])c3)[nH]c(=O)c2c1C,inactive: -6.78%,–
CCN(CCCNC(=O)c1c(C)cc(=O)oc1C)c1cccc(C)c1,inactive: -2.65%,–
CCOC(=O)c1sc(Nc2cccc(C)c2C)nc1C,inconclusive: 12%,–
CN(c1nc2nonc2nc1NC1CC1)C1CCOC1 (configuration not stated),inconclusive: 19.1% [at 46 µM],–
Cc1cccc(NC(=O)C(C)OC(=O)c2ccccc2NS(=O)(=O)c2cc(C)c(C)c([N+](=O)[O-])c2)c1 (configuration not stated),–,"inconclusive: 35.5 µM [fluorescent, single point]"
CC(=O)Nc1ccc(NC(=S)Nc2ccccc2)cc1,inactive: -9.79%,–
CCc1nc(SCC(=O)N2c3ccccc3Sc3ccccc32)c2ccccc2n1,inconclusive: 5.24%,–
COC(=O)C1C(=O)c2c([nH]c(C(=O)OC3CCCC3C)c2C)CC1C (configuration not stated),inactive: -15.1%,–
N[C@@H](CO)C(=O)NNCc1ccc(O)c(O)c1O,inactive: -5.19%,–
Cc1ccc(C(=O)N(CC#N)CC#N)cc1C,inconclusive: 4.52% [at 46 µM],–
O=c1cc(N2CCN(c3ccccc3)CC2)[nH]c(=O)n1-c1ccccc1Cl,inconclusive: -1.63%,–
Cc1ccsc1/C=N/N1CCN(Cc2ccccc2)CC1,inactive: 11% [at 46 µM],–
O=C1N/C(=N/N=C/c2ccc(O)cc2)SC1Cc1ccccc1 (configuration not stated),inconclusive: -10.9% [at 46 µM],–

# Given with bars between the fields: entries from further up.
Structure (SMILES) | ratio change, negative = inhibition | Potency
CCC(C)(C)C(=O)O[C@@H]1C[C@H](C)C=C2C=C[C@H](C)[C@@H](CC[C@H]3C[C@@H](O)CC(=O)O3)[C@H]21 | – | inconclusive: 0.0004 µM
Cc1sc2nc(COC(=O)c3ccc(N4CCCC4)c([N+](=O)[O-])c3)[nH]c(=O)c2c1C | inactive: -6.78% | –
